Assay results

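A panel of P. falciparum strains inside erythrocytes is exposed to compounds for three days, then a DNA-binding dye reports the amount of parasite DNA.
Each compound was titrated across a series from about 0.000037 to 29 µM.
The number is the fitted AC50, the concentration giving a half-maximal change in signal; a lower value means higher potency, whether the curve shows a decrease or an increase.
Calls follow the curve class and fit quality: every row here is inconclusive, covering signal-raising curves and weak, poorly fitted, partial or highest-dose-only inhibition curves.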

Values are in µM.
All entries here are filed as inconclusive.
These entries are mostly ones the record files as inconclusive; other results of the assay are not listed here.
A potency from a partial, single-point or poor curve is only a rough figure.

Result for CN(C)CCN(Cc1cccs1)c1ccccn1 [CP192] was fitted potency 4.776 µM (inhibitor, partial curve, poor fit).
Result for CN(C)CCN(Cc1cccs1)c1ccccn1 [CP211] was fitted potency 15.1 µM (inhibitor, partial curve).
Result for CN(C)CCN(Cc1cccs1)c1ccccn1 [CP250] was fitted potency 17.78 µM (inhibitor, single point).
Result for CN(C)CCN(Cc1cccs1)c1ccccn1 [CP269] was fitted potency 10.69 µM (inhibitor, single point).
Result for CN(C)CCN(Cc1cccs1)c1ccccn1 [ATS189] was fitted potency 10 µM (inhibitor, partial curve).
Result for CN(C)CCN(Cc1cccs1)c1ccccn1 [CP252] was fitted potency 10 µM (inhibitor, partial curve).
Result for CC1=C(c2ccc(NN=C(C#N)C#N)cc2)NNC(=O)C1 [DIV17] was fitted potency 19.01 µM (inhibitor, partial curve, poor fit).
Result for CC1=C(c2ccc(NN=C(C#N)C#N)cc2)NNC(=O)C1 [GB4] was fitted potency 19.01 µM (inhibitor, single point).
Result for CC1=C(c2ccc(NN=C(C#N)C#N)cc2)NNC(=O)C1 [7G8] was fitted potency 12.59 µM (inhibitor, partial curve).
Result for CCN(CC)C(=O)[C@@]1(c2ccccc2)C[C@@H]1CN [DIV14] was fitted potency 15.1 µM (inhibitor, single point).
Result for CCN(CC)C(=O)[C@@]1(c2ccccc2)C[C@@H]1CN [PC26] was fitted potency 13.46 µM (inhibitor, partial curve, poor fit).
Result for CCN(CC)C(=O)[C@@]1(c2ccccc2)C[C@@H]1CN [W2] was fitted potency 19.01 µM (inhibitor, partial curve, poor fit).
Result for CCN(CC)C(=O)[C@@]1(c2ccccc2)C[C@@H]1CN [7G8] was fitted potency 7.943 µM (inhibitor, partial curve).
Result for CCN(CC)C(=O)[C@@]1(c2ccccc2)C[C@@H]1CN [TAB109] was fitted potency 2.818 µM (inhibitor, single point).
Result for CCN(CC)C(=O)[C@@]1(c2ccccc2)C[C@@H]1CN [DIV17] was fitted potency 19.01 µM (inhibitor, single point).

For reference, 2 entries once more:

compound	tested on / at	fitted potency (µM)	remark
CN(C)CCN(Cc1cccs1)c1ccccn1	ATS189	10	inhibitor, partial curve
CN(C)CCN(Cc1cccs1)c1ccccn1	CP192	4.776	inhibitor, partial curve, poor fit

Data taken from PubChem BioAssay AID504749, deposited by NCATS (2011).